# PubChem BioAssay AID504786 | Drosophila RNAi Screening Center, 2011
# Test: 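Positive regulators of HIF-driven reporter output in Drosophila cells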 (primary screen)
# Cells: Drosophila S2 cells with a stable HIF luciferase reporter
# Reagents: long dsRNA against Drosophila genes, about 0.2 µg dsRNA per well of a 384-well plate
# Timing: three days of knock-down, then 20 h of DFO before reading
# Conditions: desferrioxamine (DFO) at 100 µM, an iron chelator that mimics hypoxia, for 20 h
# Measurement: 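Firefly luciferase driven by the mouse ldh-a hypoxia-response element, measured after 20 h of 100 µM DFO; z-scores per plate, higher means more signal lost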
# Scale: z-score: higher = stronger loss of HIF reporter signal
# The deposit covers about 21,000 reagents; below is an unselected part of those that have a named target and a result. 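Primary screen; positive scores mean lost reporter signal, so the sign may be inverted from the usual convention.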 Names joined by + are all predicted targets of the reagent. Not all columns of the deposit are shown. Reagent sequences are not shown.
gene,amplicon,"z-score, replicate 1"
PolG1 (DNA polymerase gamma subunit 1),DRSC03621,-0.1
ImpE2 (Ecdysone-inducible gene E2),DRSC08665,-0.3
CG8630,DRSC16441,-0.7
rdgB (retinal degeneration B),DRSC20365,-1.2
CG10764,DRSC06000,-0.3
Mys45A (Mystery 45A),DRSC07067,0.5
CG15800,DRSC04271,-0.3
CG5653,DRSC10534,-0.3
cyst (cysts),DRSC02023,-0.3
CG15332,DRSC18015,-0.3
CG9691,DRSC18441,-0.2
sa (spermatocyte arrest),DRSC11649,-0.3
gsb-n (gooseberry-neuro),DRSC04021,0.1
gsb-n (gooseberry-neuro),DRSC04693,0.1
Pex14 (Peroxin 14),DRSC11754,-0.3
Pli (Pellino),DRSC16792,-0.1
Dora (Dorado),DRSC19614,-0.4
Dora (Dorado),DRSC19781,-0.3
Dora (Dorado),DRSC20034,0.9
Dora (Dorado),DRSC20035,0.2
Qsox1 (Quiescin sulfhydryl oxidase 1),DRSC06878,-0.6
CG31663,DRSC00078,-0.3
CG31663,DRSC00389,-0.2
CG31663,DRSC00390,-0.7
CG31663,DRSC00393,-0.1
eIF2A (eukaryotic translation initiation factor 2A),DRSC11825,-0.3
lov (jim lovell),DRSC04279,-0.3
lov (jim lovell),DRSC04665,-0.3
CG10472,DRSC09730,-0.4
Nipped-A,DRSC04882,-0.3
Nipped-A,DRSC04883,0.7
Nipped-A,DRSC04884,1.2
Nipped-A,DRSC07738,0.1
CG17841,DRSC17737,-0.4
S-Lap5 (Sperm-Leucylaminopeptidase 5),DRSC06732,-0.4
CG9062,DRSC07327,0
CG44085,DRSC02922,-0.4
Cdc16 (Cell division cycle 16),DRSC16920,-0.4
slo (slowpoke),DRSC17057,-0.3
GstE11 (Glutathione S transferase E11),DRSC06926,-0.3
nonA-l (nonA-like),DRSC17017,-0.5
CG9815,DRSC04567,0.3
Pex5 (Peroxin 5),DRSC18552,-0.2
Vps28 (Vacuolar protein sorting 28),DRSC06168,-0.1
CG14459,DRSC11719,4.2
fz4 (frizzled 4),DRSC18780,-0.3
CG18088,DRSC02654,0.2
bai (baiser),DRSC14388,-0.4
CG3792,DRSC02725,-0.1
CG9948,DRSC11104,-0.2
GstD6 (Glutathione S transferase D6),DRSC16687,-0.3
CG13544,DRSC04186,-0.4
Orct (Organic cation transporter),DRSC16777,-0.3
CG16741,DRSC06622,-0.6
CG10931,DRSC06015,-0.1
CG10809,DRSC09802,-0.2
RpS5b (Ribosomal protein S5b),DRSC16173,0
Fcp3C (Follicle cell protein 3C),DRSC18665,-0.3
Gem2 (Gemin 2),DRSC09721,-0.2
Toll-6,DRSC11304,-0.1
CG6933,DRSC10751,-0.3
Bulli,DRSC10974,-0.2
RhoGAP100F (Rho GTPase activating protein at 100F),DRSC15409,-0.2
CG13685,DRSC10043,-0.2
CG31268,DRSC13203,-0.1
RIOK2 (RIO kinase 2),DRSC14413,0.3
CG31928,DRSC00293,-0.2
CG5770,DRSC06954,-0.1
CG15096,DRSC06525,-0.2
CG42307 + mus312,DRSC11008,-0.3
Impbeta11 (Importin beta11),DRSC07525,0
CG34297,DRSC12410,-0.3
Surf4 (Surfeit 4),DRSC16875,-0.1
NetB (Netrin-B),DRSC20262,-0.2
CG13560,DRSC04198,-0.4
HP6 (Heterochromatin protein 6),DRSC00471,-0.3
Cdk12 (Cyclin-dependent kinase 12),DRSC11836,2.5
unc (uncoordinated),DRSC20511,0.3
CG13894,DRSC08364,1.5
CG42374 + Mettl5,DRSC11085,-0.3
ecd (ecdysoneless),DRSC08574,-0.3
CG15472,DRSC18055,-0.2
ric8b + ric8a,DRSC18104,-0.4

Reformatted: entries from further up.
{"gene": "CG5770", "amplicon": "DRSC06954", "z-score, replicate 1": -0.1}
{"gene": "CG15096", "amplicon": "DRSC06525", "z-score, replicate 1": -0.2}
{"gene": "CG42307 + mus312", "amplicon": "DRSC11008", "z-score, replicate 1": -0.3}
{"gene": "Impbeta11 (Importin beta11)", "amplicon": "DRSC07525", "z-score, replicate 1": 0}
{"gene": "CG34297", "amplicon": "DRSC12410", "z-score, replicate 1": -0.3}
{"gene": "Surf4 (Surfeit 4)", "amplicon": "DRSC16875", "z-score, replicate 1": -0.1}
{"gene": "NetB (Netrin-B)", "amplicon": "DRSC20262", "z-score, replicate 1": -0.2}
{"gene": "CG13560", "amplicon": "DRSC04198", "z-score, replicate 1": -0.4}
{"gene": "HP6 (Heterochromatin protein 6)", "amplicon": "DRSC00471", "z-score, replicate 1": -0.3}
{"gene": "Cdk12 (Cyclin-dependent kinase 12)", "amplicon": "DRSC11836", "z-score, replicate 1": 2.5}
{"gene": "unc (uncoordinated)", "amplicon": "DRSC20511", "z-score, replicate 1": 0.3}
{"gene": "CG13894", "amplicon": "DRSC08364", "z-score, replicate 1": 1.5}
